Results are given in words; binding and its absence hold for the method and conditions named. Some entries that bind do so weakly or less than the wild type.

Chains of the proteins cited; added tags and fusions are not shown. Residues count along the entry.
UniProt P13385, residues 31-150: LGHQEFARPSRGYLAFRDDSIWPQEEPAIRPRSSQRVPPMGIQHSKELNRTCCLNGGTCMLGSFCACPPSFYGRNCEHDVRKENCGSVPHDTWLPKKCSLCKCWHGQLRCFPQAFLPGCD

Test [1] deals with CRIPTO antigen on GEO tumor cells (UniProt P13385). In words: flow cytometry competitive binding assay with FITC-labeled B3F6 IgG on GEO tumor cells. On the technique in general: Flow cytometry measures light scatter and fluorescence of single cells or particles in a stream.
Test [2] has the same target. In words: flow cytometry competitive binding on GEO tumor cells (FIG. 35 legend).

B1: ChB3F6ΔCH2 G1/G3/Pro243Ala244Pro245 antibody (antibody, human IgG1, kappa, V domains shown)
VH: QVQLQQVGAELVKPGASVKLSCKASGYTFTSYWIHWVKQRPGQGLEWIGENDPSNGRTNYNEKFKNKATLTVDKSSSTAYMHLSSLTSEDSAVYYCSRGPNYFYSMDYWGQGTSVTVSS
VL: DFLMTQTPLSLPVSLGDQASISCRSSQSIVHSNGNTYLEWYLQKPGQSPKLLIYKVSNRFSGVPDRFSGSGSGTDFTLKISRVEAEDLGVYYCFQGSHVPLTFGAGTKLELKR
With B1, the binding result in test [1] and in test [2] was “binds” each time.

Values taken from patent publication US20050163783A1.
